The target in experiment [1] is T1, recombinant human CLL-1 extracellular domain (ECD, amino acids 65-265) fused to an N-terminal Flag (human) (UniProt Q5QGZ9).
T1 sequence: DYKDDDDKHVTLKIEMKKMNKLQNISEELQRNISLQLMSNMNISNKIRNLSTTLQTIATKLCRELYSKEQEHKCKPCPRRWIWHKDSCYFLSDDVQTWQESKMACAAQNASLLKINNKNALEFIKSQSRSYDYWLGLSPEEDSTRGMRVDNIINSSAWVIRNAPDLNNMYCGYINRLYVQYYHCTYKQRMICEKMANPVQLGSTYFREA
Description: SPR (Biacore). (In general: Surface plasmon resonance follows binding to a sensor surface in real time, without labels.)

The chains behind the UniProt entries cited, without tags or fusion partners. Where a name states a change or a piece, a line headed by the entry shows the natural chain unless it says otherwise.
UniProt Q5QGZ9: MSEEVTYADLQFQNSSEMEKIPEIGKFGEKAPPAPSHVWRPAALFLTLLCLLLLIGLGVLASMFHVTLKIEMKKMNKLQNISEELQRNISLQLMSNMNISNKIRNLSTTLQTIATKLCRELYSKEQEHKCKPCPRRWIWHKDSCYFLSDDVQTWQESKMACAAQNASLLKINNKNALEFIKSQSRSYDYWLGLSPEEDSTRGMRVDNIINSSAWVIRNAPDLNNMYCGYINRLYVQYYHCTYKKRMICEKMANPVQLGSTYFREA

In experiment [2] the target is T1, recombinant human CLL-1 extracellular domain (ECD, amino acids 65-265) fused to an N-terminal Flag (human). Description: SPR (Biacore), told in the TDB example.

These are yes or no findings as the source states them, for the method shown. Some entries that bind do so weakly or less than the wild type. Tags and fused reporters may be left off the sequences shown.

B1: ch6E7 (antibody, V domains shown)
VH: QVQLQQSGPELVKPGASVKISCKASGYSFTDYYMHWVKQSHIKSLEWIGRINPYNGAAFYSQNFKDKASLTVDKSSSTAYMELHSLTSEDSAVYYCAIERGADLEGYAMDYWGQGTSVTVSS
VL: DIVLTQSPSSLIVSLGQRATISCRASQSVSTSSYNYMHWYQQKPGQPPKLLLKYASNLESGVPARFSGSGSGTDFTLNIHPVEEEDTATYYCQHSWEIPLTFGAGTKLEIK
As to B1, the binding entry in experiment [1] is given as “binds”.

B2: ch21C9 (antibody, V domains shown)
VH: EVQLQQSGPELVKPGASVKMSCKASGYTFTDYYLDWVKQSHGESFEWIGRVNPYNGGTIYNQKFKGKATLTVDKSSSTAYMDLNSLTSEDSAVYYCARDHYRYDPLLDYWGQGTTLTVSS
VL: DIQMTQSHKFMSTSVGDRVSITCKASQDVSTAVAWFQQKPGQSPKLLIYSPSYRYTGVPDRFTGSGSGTDFTFTISSVQAEDLAVYYCQQLYSTPYTFGGGTKLEIK
Take B2: the binding result in experiment [1] is given as “binds”.

B3: ch20B1 (antibody, V domains shown)
VH: EVQLQQSGPELVKPGALVKISCKASGYTFTSYDINWLKQRPGQGLEWIGWIYPGDGTTEYNERFKGKATLTADKSSSTAYLQLSSLTSENSAVYFCARSYDYDYAMDYWGQGTSVTVSS
VL: DIVLTQSPAIMSASPGEKVTMTCSASSSISYMYWYQQKPGTSPKRWIYDTSKLASGVPARFSGSGSGTSYSLTISSMEAEDAATYYCHQRSSWTFGGGTKLEIK
In the case of B3, the binding entry in experiment [2] and in experiment [1] was “binds” in each case.

B4: ch28H12 (antibody, V domains shown)
VH: QVQLQQSGAELVKPGASVKLSCTASGFNIKDTYMHWVKQRPEQGLEWIGRIDPANGDTDYDPKFQGKATVTADTSSNTAYLQLSSLTSEDTAVYYCTISGPPYYVMDYWGQGTSVTVSS
VL: DIQMTQSPASLAVSLGQRATISCRASQSVSSSSYSYMHWYQQKPGQPPKLLIKYASNLESGVPARFSGRGSGTDFTLNIHPVEEEDTATYYCQHSWEIPYTFGGGTRLEIK
In the case of B4, the binding entry in experiment [1] was “binds”.
